Experimental data taken from PubChem BioAssay AID2685 (National Center for Advancing Translational Sciences (NCATS), 2010).
The list shows a part of the results. Shown are side measurements of this screen, not its main read-out; they come without a call. The list favours compounds with an active or inconclusive main result. The note in brackets gives the kind of curve behind each potency; many fits are weak.

Experiment: qHTS Assay for Lipid Storage Modulators in Drosophila S3 Cells;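 as to cell number change: cells counted by Cell Tracker Red CMTPX staining in the red channel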
Conditions: BODIPY lipid droplet fluorescence, 18-24 h; for cell number change: measured here: cell count max response, cells fed with added oleic acid
Outline: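 Laser-scanning cytometry quantifies lipid droplet accumulation (500–530 nm total intensity; droplet/cell object ratio) in oleic acid-fed (400 uM added) Drosophila S3 cells treated with a concentration series. 20 uM Triacsin C defined 100% inhibition.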

[1] = measured here: lipid fluorescence (Fed channel) AC50, cells fed with added oleic acid
[2] = measured here: cell number channel AC50, cells fed with added oleic acid

Compound	cell number change	AC50 [1]	AC50 [2]
CC1CC(C)CN(CCCNC(=O)CN2C(=O)c3cccnc3Oc3ccc(Cl)cc32)C1 (stereo not drawn)	12.9%	0.103 µM [rising, single point]	–
CCOc1ccc(S(=O)(=O)N2CCC(C(=O)OCc3cccc(OC)c3OC)CC2)cc1	-8.43%	6.51 µM [falling, single point]	–
CC(=O)Nc1ccc2[nH]c(C)cc(=O)c2c1	24.5%	–	–
CC(C)c1ccc(NC(=S)NNc2ccc(Cl)c(C(=O)O)c2)cc1	20.7%	9.2 µM [rising, partial curve, poor fit]	–
CC(C)(C)C1CCC(OC(=O)CCC(=O)Nc2ccccc2)CC1 (stereo not drawn)	-28.6%	–	–
O=C(NCc1cccs1)C1CC(O)CN1C(=O)Nc1ccccc1 (stereo not drawn)	-1.67%	4.11 µM [rising, partial curve]	–
CC(=O)Nc1nc(-c2cc([N+](=O)[O-])cs2)cs1	-9.52%	0.092 µM [rising, single point]	–
CCc1ccc(CN2CCC(n3nccc3NC(=O)c3ccccc3Cl)CC2)cc1	33.7%	–	–
NC(=O)CC(NC(=O)c1ccccc1)c1ccc(NCCc2ccc(Cl)cc2)c([N+](=O)[O-])c1 (stereo not drawn)	3.18%	2.31 µM [rising, single point]	–
Oc1ccc(-c2cnc(-c3ccc(O)cc3)nc2)cc1	4.94%	23.1 µM [rising, partial curve]	–
CN(CC1COc2ccccc2O1)C(=O)c1cc(COc2c(F)cccc2F)on1 (stereo not drawn)	-1.36%	20.6 µM [falling, single point]	–
O=C(Nc1ccc(OC(F)(F)F)cc1)c1ccc2nccnc2c1	56.6%	–	29.1 µM [rising, single point]
O=C(Nc1cccc(-c2cn3cccnc3n2)c1)Nc1ccccc1F	-5.65%	–	–
CCOc1ccc(N2C(=O)CC(SC(=NC)Nc3cccc(F)c3)C2=O)cc1 (stereo not drawn)	11.5%	–	0.13 µM [rising, full curve]
FC(F)(F)c1cc(-c2ccc(Cl)cc2)nc(NCc2cccnc2)n1	-34.5%	0.82 µM [rising, single point]	0.92 µM [rising, partial curve]
Cc1ccc2c(Cl)cc(Cl)c(OCC(=O)NC(=O)NCc3ccco3)c2n1	-6.21%	–	–
CCCN1CCC(N(C)CCc2ccc(OC)c(OC)c2)CC1	5.11%	0.00517 µM [rising, full curve, poor fit]	–
Cc1c(Cl)cccc1NC(=O)COc1ccc(S(=O)(=O)N2CCOCC2)cc1	77.8%	0.92 µM [rising, partial curve]	0.082 µM [rising, full curve]
O=C(O)C1CCN(C(=O)CSc2nc3ccccc3c(=O)n2-c2ccc(Cl)cc2)CC1	3.97%	–	0.058 µM [rising, full curve, poor fit]
Oc1ccc(-c2c(C3=CCCCC3)sc3ccccc23)cc1	0.971%	–	6.51 µM [rising, single point]
CC(C(=O)Nc1ccc(S(=O)(=O)N2CCOCC2)cc1)N1CCN(c2ccccn2)CC1 (stereo not drawn)	-0.601%	–	–

Compound	cell number change	AC50 [1]	AC50 [2]
COCCn1nnnc1C(c1cccs1)N1CCN(c2cc(C)ccc2C)CC1 (stereo not drawn)	1.64%	–	–
O=C(NCCN1CCC(Cc2ccccc2)CC1)C1CCCN(S(=O)(=O)c2cnc[nH]2)C1 (stereo not drawn)	-12.5%	–	–
CCc1ccc2[nH]cc(C(=O)N3CCCCCC3)c(=O)c2c1	-7.28%	4.61 µM [rising, partial curve, poor fit]	–
CCN(Cc1nc2cc(Cl)ccc2c(=O)[nH]1)C(=O)c1cccc(NC(=O)c2cccs2)c1	21.2%	13 µM [rising, partial curve]	–
COc1ccccc1NC(=O)C1=C(C)NC(=O)NC1c1ccc(C)s1 (stereo not drawn)	14.7%	0.891 µM [rising, full curve, poor fit]	–
CN(CC(=O)Nc1ccc(Cl)c(C(F)(F)F)c1)C(=O)c1ccc(OCC2CCCO2)cc1 (stereo not drawn)	-6.56%	0.58 µM [falling, single point]	–
O=C(Nc1ccnn1C1CCN(C(=O)c2ccc(C(F)(F)F)cc2)CC1)C1CC1	30.4%	29.1 µM [falling, single point]	16.4 µM [rising, single point]
CC(C)=CCCC(C)CN1CCC(n2nccc2NC(=O)c2ccc3c(c2)OCO3)CC1 (stereo not drawn)	68.6%	0.00651 µM [rising, full curve, poor fit]	29.1 µM [rising, single point]
CCC(=O)N1CCc2cc(S(=O)(=O)NCCC(=O)Nc3ccccc3C)ccc21	-9.4%	6.51 µM [falling, single point]	–
COc1ccc(NC(=O)NNS(=O)(=O)c2ccc(Br)cc2)cc1	53%	0.58 µM [rising, full curve, poor fit]	16.4 µM [rising, single point]
COc1cccc2c1C(=O)O/C2=C/c1ccc2c(c1)OCO2	29.2%	0.651 µM [rising, full curve]	1.3 µM [rising, full curve]
COc1cc(/C=N/OCC(=O)Nc2cc(C)on2)ccc1OCc1ccccc1	3.92%	18.4 µM [rising, partial curve]	–
Cc1ccc(NC(=S)N/N=C/c2ccc([N+](=O)[O-])s2)cc1	-10.3%	23.1 µM [falling, partial curve, poor fit]	–
CCOC(=O)c1cc(C)n(-n2cnnc2)c1C	–	25.9 µM [falling, partial curve]	–
O=C(CSc1nnc(Cc2ccccc2)o1)NCCc1ccccc1	113%	0.517 µM [falling, full curve]	29.1 µM [rising, single point]
CCn1cc(C(=O)NCCCOC)c(=O)c2cc(S(=O)(=O)N(C)C3CCCCC3)ccc21	-18.3%	32.6 µM [falling, single point]	–
COc1ccccc1NC(=O)COC(=O)[C@@H]1CCCN1C(=O)c1cccs1	21.7%	–	–
COc1cccc(NC(=O)CCNS(=O)(=O)c2cccc3nsnc23)c1	-48.3%	20.6 µM [falling, partial curve, poor fit]	–
Cc1nc(C)c(-c2ccc(SCC(=O)Nc3ccc(C)c(Cl)c3)nn2)s1	79.8%	16.4 µM [rising, single point]	16.4 µM [rising, partial curve]
COc1ccc(S(=O)(=O)N2CCCC(C(=O)Nc3cccnc3)C2)cc1Cl (stereo not drawn)	-37.1%	14.6 µM [falling, partial curve]	9.2 µM [falling, partial curve, poor fit]
COC(=O)c1c(NC(=O)c2cnccn2)sc2c1CCC2	3.76%	0.291 µM [rising, partial curve, poor fit]	0.411 µM [rising, full curve]

Ordered by SMILES length (low to high): three of the compounds above
Compound	cell number change	AC50 [1]	AC50 [2]
COc1ccccc1NC(=O)COC(=O)[C@@H]1CCCN1C(=O)c1cccs1	21.7%	–	–
O=C(NCCN1CCC(Cc2ccccc2)CC1)C1CCCN(S(=O)(=O)c2cnc[nH]2)C1 (stereo not drawn)	-12.5%	–	–
CN(CC(=O)Nc1ccc(Cl)c(C(F)(F)F)c1)C(=O)c1ccc(OCC2CCCO2)cc1 (stereo not drawn)	-6.56%	0.58 µM [falling, single point]	–

Going on with the list:

Compound	cell number change	AC50 [1]	AC50 [2]
Cc1ccc(S(=O)(=O)NC(C)(C)CSc2nnc(Nc3ccccc3)s2)cc1	-38.7%	6.51 µM [rising, single point]	1.84 µM [falling, partial curve]
CC1CCC(NC(=O)c2cc3c(s2)CS(=O)(=O)C3)CC1 (stereo not drawn)	11%	1.64 µM [falling, partial curve, poor fit]	–
CC1=Nn2c(nnc2-c2ccccc2Cl)SC1	4.39%	–	–
O=C(NC12CC3CC(CC(C3)C1)C2)C1CC(=O)N(c2ccc(Br)cc2)C1 (stereo not drawn)	3.58%	0.0651 µM [falling, full curve, poor fit]	–
O=C(c1ccc(F)cc1)N1CCCC(C(=O)N2CCc3ccccc3C2)C1 (stereo not drawn)	-4.44%	29.1 µM [falling, single point]	–
CC(C(=O)NCCc1nc2ccccc2[nH]1)n1cc([N+](=O)[O-])cn1 (stereo not drawn)	-31.4%	0.116 µM [falling, full curve, poor fit]	–
CCn1ncc(/C=N/N=C2\CCC3C4CCc5cc(O)ccc5C4CCC23C)c1C (stereo not drawn)	–	0.58 µM [rising, single point]	1.84 µM [rising, partial curve]
c1cc2c(cc1C1CCCCC1)c1c3n2CCN=C3CCC1	-37.2%	16.4 µM [falling, single point]	29.1 µM [falling, single point]
O=C(CSc1nnc(NC(=O)C2CC2)s1)Nc1ccc(F)cc1	3.96%	–	6.51 µM [falling, single point]
O=C(O)CCCC(=O)N1CCN(c2cccc(Cl)c2)CC1	-8.13%	–	–
O=C1CCC(=O)N1CCOP1(=O)COc2ccccc2OC1	-0.164%	0.731 µM [falling, full curve]	–
CC(C)Cc1nnc(NC(=O)CN2C(=O)NC3(CC(C)CC(C)(C)C3)C2=O)s1 (stereo not drawn)	40.5%	–	32.6 µM [rising, single point]
CC(C)NCC(=O)Nc1c2c(nc3ccccc13)CCC2	-7.16%	0.82 µM [falling, full curve, poor fit]	–
Cc1cc(C)n(CC(=O)N/N=C/c2cccc([N+](=O)[O-])c2)n1	-4.1%	–	–
C/C(N)=C(/C#N)C(=O)COC(=O)c1ccncc1	0.359%	–	–
Cc1cccc(Cc2nnc(NC(=O)c3cccc(S(=O)(=O)N4CCOCC4)c3)s2)c1	–	0.58 µM [rising, single point]	–
Cc1nc2cc(S(=O)(=O)N3CCC(C(=O)O)CC3)ccc2n1C1CCCC1	0.719%	–	–
Cc1ccc(C(C)NC(=O)Cc2cccs2)c(C)c1 (stereo not drawn)	4.67%	0.58 µM [rising, single point]	–
CCOC(=O)c1c(NC(=O)Cc2cccs2)sc(C(=O)NC2CCCC2)c1C	23.4%	0.366 µM [rising, full curve]	–

Three entries from above in another layout:
C/C(N)=C(/C#N)C(=O)COC(=O)c1ccncc1
  cell number change: 0.359%
Cc1cccc(Cc2nnc(NC(=O)c3cccc(S(=O)(=O)N4CCOCC4)c3)s2)c1
  AC50 [1]: 0.58 µM [rising, single point]
Cc1nc2cc(S(=O)(=O)N3CCC(C(=O)O)CC3)ccc2n1C1CCCC1
  cell number change: 0.719%
